# Assay results published in PMC7819943, “Rice protein-binding microarrays: a tool to detect cis-acting elements near promoter regions in rice”.
# Sequences of proteins named here, by UniProt entry; tags and fusion partners are left off.
# UniProt Q0JBA9, entry or part of it: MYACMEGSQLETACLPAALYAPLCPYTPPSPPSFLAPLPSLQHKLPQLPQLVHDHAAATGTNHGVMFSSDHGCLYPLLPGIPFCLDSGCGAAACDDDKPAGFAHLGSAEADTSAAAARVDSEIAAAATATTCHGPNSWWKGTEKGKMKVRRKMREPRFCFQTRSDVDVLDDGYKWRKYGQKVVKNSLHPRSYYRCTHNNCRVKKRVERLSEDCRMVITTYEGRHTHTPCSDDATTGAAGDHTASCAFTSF
# This is one part of the list.
# Target: OsWRKY34 (Oryza sativa, UniProt Q0JBA9 1-250)
# Assay: protein-binding microarray (RPBM); PBS, 2% BSA, 51.3 ng/ul salmon testes DNA, 50 uM zinc acetate, 200 nM TF, 25 C, 1 h; high values mean tight binding
# Settings: protein: recombinant; tags: N-terminal polyhistidine and DsRed monomer fusion (pET32a); label: CyDye5-dUTP incorporated in the synthesized complementary strand; 3' TTTTT single-stranded linker to array surface; dsDNA, one strand shown
# Summary of the method: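 Transcription factors, each fused N-terminally to a polyhistidine tag and DsRed, were expressed in E. coli BL21-CodonPlus and purified on Ni–NTA. A custom Agilent array was made double-stranded by primer extension with Cy5-dUTP and blocked with 2% BSA. It was incubated with 200 nM protein in PBS, 2% BSA, salmon testes DNA and 50 µM zinc acetate at 25 °C for 1 h, then washed. The binding signal is per-feature fluorescence intensity (arbitrary units) read on an Axon 4000B scanner.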
row,Sequence,binding signal
1,TCATCCCCTGATCGTCATCAGCATTCTCACCGTCGGCGCTCGGAGTCACCTAGTGCAG,8600 fluorescence intensity (a.u.)
2,CAGCCATCCATCCCACCCACACGTCACCACCCGCGCATCCCGGAGTCACCTAGTGCAG,8270 fluorescence intensity (a.u.)
3,ACTAATTTGCGAGACGAATCTTTTAAGTATAATTTCTCTACGGAGTCACCTAGTGCAG,8700 fluorescence intensity (a.u.)
4,ATCTCAAGCACTTGCATGTTTATTTTATCTCACTGGCTATCGGAGTCACCTAGTGCAG,9320 fluorescence intensity (a.u.)
5,ATTTTTTTTGTCAAACTGCCACGAAAGCGTCACGTTAATACGGAGTCACCTAGTGCAG,8240 fluorescence intensity (a.u.)
6,CTTTCTTTCTTTCTTTCTTCTTTTTTTTCTTTTTTTTTTGCGGAGTCACCTAGTGCAG,8640 fluorescence intensity (a.u.)
7,GCGTTTTGCGCCCTCGTGACTCGCCGCCGACACTCGCCAACGGAGTCACCTAGTGCAG,9360 fluorescence intensity (a.u.)
8,ACTTTTTTCATGCGACATTTTTCTTCATCACTCTGAAGACCGGAGTCACCTAGTGCAG,12100 fluorescence intensity (a.u.)
9,GCCCCGCTGCCTGATGCCATCGCTGCTTGGACTGCCCCATCGGAGTCACCTAGTGCAG,10800 fluorescence intensity (a.u.)
10,ACGAGTCTCCGACCACTTCCCACACCGGCGCCTCCACGCCCGGAGTCACCTAGTGCAG,8320 fluorescence intensity (a.u.)
11,CGGTGGGCTGGAGCTGATACGGGTTCTGGGGCAGGGAGCTCGGAGTCACCTAGTGCAG,9910 fluorescence intensity (a.u.)
12,AACAGGTGGTGTAGTGACTAGTGAGGTGAGGGAGGAGGGGCGGAGTCACCTAGTGCAG,12600 fluorescence intensity (a.u.)
13,ACACTTCTATCGGCTTCTTTATCTGTACACCATCAGCCCACGGAGTCACCTAGTGCAG,10300 fluorescence intensity (a.u.)
14,ACCTCCATCGTTTCCGCACGCACGTTTTTCAAACCGTTAACGGAGTCACCTAGTGCAG,9080 fluorescence intensity (a.u.)
15,CAGGAGGGGTGGGTTGTTGTTCGGTGGTGTGGACCCGTGCCGGAGTCACCTAGTGCAG,17700 fluorescence intensity (a.u.)
16,TTTTTAGCCTTTACTTTTAATTGCTACGAATACTTATATACGGAGTCACCTAGTGCAG,9160 fluorescence intensity (a.u.)
17,TAAATTACTAAATTGTTTGACTTTTTTCTTAGTCAAACTTCGGAGTCACCTAGTGCAG,13600 fluorescence intensity (a.u.)
18,TGCCTAACAATTCTTTTTATTCGCGACGTCAATATACTACCGGAGTCACCTAGTGCAG,9730 fluorescence intensity (a.u.)
19,CATCCCCAAACTCCGCCGCCGCCGCCGTCACCGCCGCTCGCGGAGTCACCTAGTGCAG,8180 fluorescence intensity (a.u.)
20,ATCACCTTTTGCGGGCTTAGTTCTTTTTTAGACTAGCCATCGGAGTCACCTAGTGCAG,9940 fluorescence intensity (a.u.)
21,CAAGCACCACATGACTCACACACACCTTTCTCTTCTTCCACGGAGTCACCTAGTGCAG,15700 fluorescence intensity (a.u.)

row,Sequence,binding signal
1,AATGAAAAATGGGGATGGGATTGGGATTGAGAAATGAATGCGGAGTCACCTAGTGCAG,9280 fluorescence intensity (a.u.)
2,AATGGCAACTTCACAATTAAATTCTTGCATCTTTATGGGGCGGAGTCACCTAGTGCAG,8910 fluorescence intensity (a.u.)
3,TGTGGTTGGTATCTTTACTATTCTTTATTTATTTATTTATCGGAGTCACCTAGTGCAG,8660 fluorescence intensity (a.u.)
4,TGTGTCTGTCCTCCATCTTCTCTAAATAGTATTTAGCACACGGAGTCACCTAGTGCAG,9880 fluorescence intensity (a.u.)
5,CACGGCGCGACACTTTTGCCCTCACCTCCTACGCCTACACCGGAGTCACCTAGTGCAG,8020 fluorescence intensity (a.u.)
6,CGCGCTTCCCCGTTGACGCCGTCACCTCCCGTCTCCTTAACGGAGTCACCTAGTGCAG,8410 fluorescence intensity (a.u.)
7,CCTCCGTCCCACAATATAAGAGATTTTAAGTTTTTTCTTACGGAGTCACCTAGTGCAG,8900 fluorescence intensity (a.u.)
8,GGGGAGCTATTTAGTACTAGTTTTCAGCTTAATTACATTTCGGAGTCACCTAGTGCAG,10900 fluorescence intensity (a.u.)
9,TGTTTGCGTTTATCCCTTCTAGTGGGTTCCTTCGTAGGCACGGAGTCACCTAGTGCAG,8620 fluorescence intensity (a.u.)
10,ATTGGATTATTTGAGGTCGGGGAGGGGTACTTCAATGAATCGGAGTCACCTAGTGCAG,14100 fluorescence intensity (a.u.)
11,GCTACAGTAAGGTCAATATACTCTCCGTACTTTTCTTCTGCGGAGTCACCTAGTGCAG,8700 fluorescence intensity (a.u.)
12,GCCCACCATCTCATCTCTCGCACGCACGCACGCACCCGCCCGGAGTCACCTAGTGCAG,9070 fluorescence intensity (a.u.)
13,TGTCATTGGTGTATGCTTGACTATAGTCATCAGAGTTCAACGGAGTCACCTAGTGCAG,8330 fluorescence intensity (a.u.)
14,TTTGACATGTAGCTTTATGCAAGTTGGGTTTCGGATCTTGCGGAGTCACCTAGTGCAG,8470 fluorescence intensity (a.u.)
15,AGCGGTTGCTGGTGGTATGAGGAATTTGTTGTCGACACAACGGAGTCACCTAGTGCAG,8380 fluorescence intensity (a.u.)
16,ACATCCTTGTCGCGGCCATTATTCTCGTTGGAAGCTATCCCGGAGTCACCTAGTGCAG,8200 fluorescence intensity (a.u.)
17,CATCGCTATCACGCTCTGCACTTATCTCCAGGCCCAACTCCGGAGTCACCTAGTGCAG,8970 fluorescence intensity (a.u.)
18,GGAAGATCTATCTCTCGCTCGCTAGCTTGTCTGTCTTTTGCGGAGTCACCTAGTGCAG,11300 fluorescence intensity (a.u.)
19,ACCATTTACCAAACCTACCACAACTGGCACTACCAGATCGCGGAGTCACCTAGTGCAG,9610 fluorescence intensity (a.u.)
20,GGGTGCGTGGTACAGTTGACATTTGATACTTCTCTCGCCTCGGAGTCACCTAGTGCAG,9550 fluorescence intensity (a.u.)
21,TCAGTAACATCACCACACCGCTCTCCAAGTGTCAAAAAGACGGAGTCACCTAGTGCAG,9630 fluorescence intensity (a.u.)

# 2 records picked at random from the list so far, as already listed:
row,Sequence,binding signal
4,TGTGTCTGTCCTCCATCTTCTCTAAATAGTATTTAGCACACGGAGTCACCTAGTGCAG,9880 fluorescence intensity (a.u.)
15,AGCGGTTGCTGGTGGTATGAGGAATTTGTTGTCGACACAACGGAGTCACCTAGTGCAG,8380 fluorescence intensity (a.u.)
